Results taken from patent US20200255499A1 (COUNCIL OF THE QUEENSLAND INSTITUTE OF MEDICAL RESEARCH, published 2020).
These are yes or no findings as the source states them, for the method shown. Some binding calls cover weakened binding; strength is not graded here.

Amino acid sequences for entries named in this document (tags omitted). Residues count along the entry.
UniProt P03200, residues 1-860: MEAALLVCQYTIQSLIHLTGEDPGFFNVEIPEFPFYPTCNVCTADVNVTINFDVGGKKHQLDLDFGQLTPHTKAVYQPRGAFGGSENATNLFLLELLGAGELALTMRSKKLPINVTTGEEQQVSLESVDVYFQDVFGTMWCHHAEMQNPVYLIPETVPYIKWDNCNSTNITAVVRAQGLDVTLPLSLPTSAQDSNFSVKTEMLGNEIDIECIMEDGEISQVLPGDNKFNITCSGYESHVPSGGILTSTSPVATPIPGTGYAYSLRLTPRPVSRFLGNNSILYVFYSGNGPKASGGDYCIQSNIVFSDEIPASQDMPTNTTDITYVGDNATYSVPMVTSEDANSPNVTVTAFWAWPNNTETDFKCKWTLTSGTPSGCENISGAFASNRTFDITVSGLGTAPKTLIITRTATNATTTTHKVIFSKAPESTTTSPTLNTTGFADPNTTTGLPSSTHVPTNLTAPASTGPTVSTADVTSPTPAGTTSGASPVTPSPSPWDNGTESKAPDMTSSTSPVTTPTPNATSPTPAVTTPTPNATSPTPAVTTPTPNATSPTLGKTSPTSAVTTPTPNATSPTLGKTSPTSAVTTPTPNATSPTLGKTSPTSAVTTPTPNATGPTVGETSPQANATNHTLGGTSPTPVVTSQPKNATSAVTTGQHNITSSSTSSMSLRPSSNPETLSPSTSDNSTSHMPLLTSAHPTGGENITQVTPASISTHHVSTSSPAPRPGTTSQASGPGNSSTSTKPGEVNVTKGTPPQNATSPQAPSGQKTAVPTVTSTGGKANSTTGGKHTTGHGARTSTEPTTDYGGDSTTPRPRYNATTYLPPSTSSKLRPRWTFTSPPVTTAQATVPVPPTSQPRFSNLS

B1: Clone A11 recombinant human IgG1 monoclonal antibody (antibody, V domains shown)
VH: EMQLVQSGAEVKKPGASVKVSCKTSGYNFNHQGISWLRQAPGQGLEWMGWISGFNGKTNYAQKFQGRVTMTADRSTTTAYMELRSLRSDDTAVYYCASGGEQWLVQNFVHWGQGTLLTVSS
VL: ETVLTQEPSLTVSPGGTVTLTCASSTGAVTSGYYPNWFQQKPGQAPRALIYSTSNKHSWTPARFSGSLLGGKAALTLSGVQPEDEAEYYCLLYYGGAWVFGGGTKLTVLG
notes: also called Antibody A11
B2: Clone B7 recombinant human IgG1 monoclonal antibody (antibody, V domains shown)
VH: EVQLVQSGAEVKKPGASVEVSCKASGYTFNAYYIHWVRQAPGQGLDWMGWINPNSGGTNYAQNFKGRVTMTRDTSISTAYLELRSLTSDDTAVYFCATERGYTSSFRRDAFDKWGQGTMLTVSS
VL: ESVLTQPPSVSAAPGQKVTISCSGSSSNIGNNYVSWYQQLPGTAPKLLIYENNKRPSGIPDRFSGSKSGTSATLGITGLQTGDEAGYYCGTWDSSLSAVVFGGGTKLTVLG
notes: also called Antibody B7
B3: Clone B8 recombinant human IgG1 monoclonal antibody (antibody, V domains shown)
VH: EVQLVESAGEVQKPGESLRISCKASGYTFSHYWIGWVRQLPGKGLEWMGIIYPDDSDSRYSPSFQGQVTMSVDKSINTAYLQWNSLKVSDTATYYCVRHWLKRGSNFGFGFDPWGQGTTLTVSS
VL: ESALTQPASVSGSPGQSITISCTGTSSDVGGYNYVSWYQQHPGKAPKLMIYDVSNRPSGVSNRFSGSKSGNTASLTISGLQAEDEADYYCSSYTSSSTLVFGGGTKLTVLG
notes: also called antibody B8

Each binder was assayed against Epstein Barr Virus (EBV) glycoprotein gp350 (Epstein-Barr virus) (UniProt P03200) (assay: SPR, gp350 immobilised on CM5 chip, single cycle kinetics).
B1 was tested, and the binding was “binds”.
B2 was tested, and the binding was “binds”.
For B3, the binding was “binds”.
